Measurements from PubChem BioAssay AID720619 (Broad Institute, 2013).
The list shows a part of the results. These are further read-outs of the screen, such as a control signal, another cell line or another target. No call is given for them.

Assay: HT-29 colorectal cell cytotoxicity, late-stage follow-up, mechanism study for HRAS target identification, Alamar Blue fluorescence, several timepoints, dry powder (AID 720619)
Settings: HT-29 viability, 8 h treatment, at 35 µM

SMILES | activity, lower = more toxic [%]
COc1ccc(N(C(=O)CCl)C(C(=O)NCCc2ccccc2)c2cccs2)cc1Cl (stereo not given) | -20.4
C#CCCCC(=O)NCCOCCOCCOc1ccc(N(C(=O)CCl)C(C(=O)NCCc2ccccc2)c2cccs2)cc1Cl (stereo not given) | -14.3
Cc1onc(C(=O)N2CCN(C(c3ccc(Cl)cc3)c3ccc(Cl)cc3)CC2)c1[N+](=O)[O-] | -10.9
CC(C)(C)OC(=O)NCCOCCOCCOc1ccc(N(C(=O)CCl)C(C(=O)NCCc2ccccc2)c2cccs2)cc1Cl (stereo not given) | -14.4
COC(=O)c1ccc([C@@H]2c3[nH]c4ccccc4c3C[C@@H](C(=O)OC)N2C(=O)CCl)cc1 | -9.45
